Our source for the binding values is article PMC3335088 (PLoS ONE, 2012).

These are yes or no findings as the source states them, for the method shown. Binding seen in cells or lysates may run through a third protein. Binding can be weak; no strength is given. Sequences can lack the tags named with a protein.

The target in assay [1] is T1, MCM6 with 6-His tag in combination with a HA tag (human) (UniProt Q14566).
T1 sequence: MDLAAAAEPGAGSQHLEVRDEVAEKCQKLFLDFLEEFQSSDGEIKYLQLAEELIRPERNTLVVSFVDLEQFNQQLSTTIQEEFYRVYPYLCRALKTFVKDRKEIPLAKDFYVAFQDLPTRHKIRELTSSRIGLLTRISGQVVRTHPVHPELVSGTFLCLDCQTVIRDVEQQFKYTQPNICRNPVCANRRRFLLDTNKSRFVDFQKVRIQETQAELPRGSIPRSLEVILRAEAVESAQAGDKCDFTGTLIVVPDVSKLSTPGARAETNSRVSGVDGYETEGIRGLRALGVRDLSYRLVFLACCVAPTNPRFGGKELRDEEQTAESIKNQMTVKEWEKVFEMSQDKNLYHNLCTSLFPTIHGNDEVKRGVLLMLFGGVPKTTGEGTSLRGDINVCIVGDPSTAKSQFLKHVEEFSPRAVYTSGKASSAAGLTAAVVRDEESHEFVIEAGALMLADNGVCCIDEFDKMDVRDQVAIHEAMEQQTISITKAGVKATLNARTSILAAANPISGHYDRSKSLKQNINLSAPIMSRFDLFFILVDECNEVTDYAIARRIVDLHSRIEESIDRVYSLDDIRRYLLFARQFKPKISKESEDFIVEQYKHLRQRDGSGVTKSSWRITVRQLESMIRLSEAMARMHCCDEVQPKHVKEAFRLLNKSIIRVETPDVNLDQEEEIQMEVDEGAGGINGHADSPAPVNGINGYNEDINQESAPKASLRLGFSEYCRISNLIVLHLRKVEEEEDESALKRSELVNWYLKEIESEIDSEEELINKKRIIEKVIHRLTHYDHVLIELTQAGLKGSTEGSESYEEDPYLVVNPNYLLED
Put plainly: pull-down; co-expression in High Five insect cells; lysis in 50-100 mM Tris-HCl pH 8.0, 150 mM NaCl, 5% glycerol, 0.5% Triton X-100; tagged protein recovered on Ni-NTA, anti-FLAG M2, anti-HA or StrepT-actin resin, 1 hr at 4°C; washes with 300 mM NaCl; Coomassie staining and Western blot. (In general: Immunoblotting shows a protein as a band on a membrane.)

Assay [2] deals with T2, MCM4 with 6-His tag in combination with a StrepII tag (UniProt P33991).
T2 sequence: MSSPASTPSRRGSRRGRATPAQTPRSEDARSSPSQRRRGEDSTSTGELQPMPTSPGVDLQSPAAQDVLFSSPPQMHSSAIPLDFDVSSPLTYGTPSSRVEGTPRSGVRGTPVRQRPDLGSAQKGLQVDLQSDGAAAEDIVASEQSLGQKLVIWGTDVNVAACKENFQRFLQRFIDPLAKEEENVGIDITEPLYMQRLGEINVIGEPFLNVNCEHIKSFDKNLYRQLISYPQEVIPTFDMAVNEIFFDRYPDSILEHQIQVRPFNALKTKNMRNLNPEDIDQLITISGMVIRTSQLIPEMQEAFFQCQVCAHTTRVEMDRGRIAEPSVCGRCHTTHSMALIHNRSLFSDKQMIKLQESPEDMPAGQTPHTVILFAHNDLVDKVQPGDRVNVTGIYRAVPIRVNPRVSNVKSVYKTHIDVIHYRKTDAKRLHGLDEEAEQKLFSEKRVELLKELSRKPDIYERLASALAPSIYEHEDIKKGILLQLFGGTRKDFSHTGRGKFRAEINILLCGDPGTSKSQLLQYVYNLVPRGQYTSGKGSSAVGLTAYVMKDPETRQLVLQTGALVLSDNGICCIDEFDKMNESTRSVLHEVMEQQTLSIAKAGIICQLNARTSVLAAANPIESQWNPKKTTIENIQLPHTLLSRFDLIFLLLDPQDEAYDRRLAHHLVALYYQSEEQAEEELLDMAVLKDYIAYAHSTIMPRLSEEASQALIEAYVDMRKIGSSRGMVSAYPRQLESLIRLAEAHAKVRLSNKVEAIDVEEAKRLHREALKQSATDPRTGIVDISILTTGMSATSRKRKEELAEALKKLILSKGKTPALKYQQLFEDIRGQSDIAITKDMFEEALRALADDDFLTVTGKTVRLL
The assay is described as above.

Regarding endogenous insect MCM-BP, the binding result in assay [1] and in assay [2] was “binds” each time.
